# Some of the results follow. Repeats are few or missing, and single values can be far off.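 Imaging used 1,536-well plates; nuclei positive for cleaved PARP by antibody were divided by total DNA-stained nuclei to yield the apoptosis fraction. Doses for screening kept most cells viable, and cell lines differ markedly in resting and induced cleaved-PARP levels.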
# Columns and labels:
# Experiment in all cases: cleaved PARP positive nuclei fraction relative to DMSO control; melanoma cells; higher = more apoptosis
# Conditions in all cases: library dose: low library concentration; 72 h
# MZ2-MEL = tested on: MZ2-MEL
# MeWo = tested on: MeWo
# RPMI7951 = tested on: RPMI7951
# RVH-421 = tested on: RVH-421
# SkMel28 = tested on: SkMel28
# SkMel2 = tested on: SkMel2
# SkMel30 = tested on: SkMel30
# SkMel5 = tested on: SkMel5
# UACC257 = tested on: UACC257
# UACC62 = tested on: UACC62
Compound,cleaved PARP positive nuclei fraction (MZ2-MEL),cleaved PARP positive nuclei fraction (MeWo),cleaved PARP positive nuclei fraction (RPMI7951),cleaved PARP positive nuclei fraction (RVH-421),cleaved PARP positive nuclei fraction (SkMel28),cleaved PARP positive nuclei fraction (SkMel2),cleaved PARP positive nuclei fraction (SkMel30),cleaved PARP positive nuclei fraction (SkMel5),cleaved PARP positive nuclei fraction (UACC257),cleaved PARP positive nuclei fraction (UACC62)
"Cc1cn(-c2cc(NC(=O)c3ccc(C)c(Nc4nccc(-c5cccnc5)n4)c3)cc(C(F)(F)F)c2)cn1 [nilotinib] + O=C(Oc1ccc([N+](=O)[O-])cc1)N1CCC(C(O)(c2ccc3c(c2)OCO3)c2ccc3c(c2)OCO3)CC1 [JZL184] (first compound 0.2 µM, partner dose 1 µM)",117%,228%,46.2%,99.9%,59.3%,148%,29.2%,82.1%,195%,90.1%
"CCCCCCCCCCCCCCCCCCOP(=O)([O-])OC1CC[N+](C)(C)CC1 [Perifosine] + Cn1cc(C2=C(c3cn(C4CCN(Cc5ccccn5)CC4)c4ccccc34)C(=O)NC2=O)c2ccccc21 [Enzastaurin] (first compound 0.4 µM, partner dose 0.8 µM)",92.8%,119%,121%,175%,97.8%,60%,115%,–,–,123%
"Cn1cc(C2=C(c3cn(C4CCN(Cc5ccccn5)CC4)c4ccccc34)C(=O)NC2=O)c2ccccc21 [Enzastaurin] + COc1cc(N2CCC(N3CCN(C)CC3)CC2)ccc1Nc1ncc(Cl)c(Nc2ccccc2S(=O)(=O)C(C)C)n1 [NVP-TAE684] (first compound 0.8 µM, partner dose 0.08 µM)",21.9%,85.5%,39.5%,97.1%,73.2%,114%,85.3%,93.7%,265%,45.6%
"C[C@]1(O)C[C@@H](c2nc(-c3ccc4ccc(-c5ccccc5)nc4c3)c3c(N)nccn32)C1 + N.N.[Cl][Pt][Cl] [cisplatin] (first compound 0.4 µM, partner dose 1.6 µM)",112%,104%,173%,57.8%,108%,68.4%,36.2%,–,–,26.7%
"Cn1cc(C2=C(c3cn(C4CCN(Cc5ccccn5)CC4)c4ccccc34)C(=O)NC2=O)c2ccccc21 [Enzastaurin] + C#Cc1cccc(Nc2ncnc3cc(OCCOC)c(OCCOC)cc23)c1 [erlotinib] (first compound 0.8 µM, partner dose 0.8 µM)",63.6%,29.6%,111%,150%,175%,103%,71.8%,–,–,102%
"CNC(=O)c1cc(Oc2ccc(NC(=O)Nc3ccc(Cl)c(C(F)(F)F)c3)cc2)ccn1 [sorafenib] + C[As](C)SC[C@H](NC(=O)CC[C@H](N)C(=O)O)C(=O)NCC(=O)O [Darinaparsin] (first compound 0.4 µM, partner dose 0.4 µM)",161%,111%,103%,125%,40.6%,42%,41.1%,–,–,169%
"Cn1cc(C2=C(c3cn(C4CCN(Cc5ccccn5)CC4)c4ccccc34)C(=O)NC2=O)c2ccccc21 [Enzastaurin] + Cn1sc(=O)n(Cc2ccccc2)c1=O [TDZD-8] (first compound 0.8 µM, partner dose 0.4 µM)",91.5%,120%,95.8%,38.3%,68%,177%,59.2%,–,–,270%
"N.N.[Cl][Pt][Cl] [cisplatin] + COCC[n+]1c2c(n(Cc3cnccn3)c1C)C(=O)c1ccccc1C2=O [YM155] (first compound 1.6 µM, partner dose 0.0004 µM)",284%,111%,51.5%,170%,78.7%,161%,157%,–,–,67.3%
"Cc1cc(Nc2cc(N3CCN(C)CC3)nc(/C=C/c3ccccc3)n2)n[nH]1 + C[As](C)SC[C@H](NC(=O)CC[C@H](N)C(=O)O)C(=O)NCC(=O)O [Darinaparsin] (first compound 0.04 µM, partner dose 0.4 µM)",167%,292%,76.3%,155%,145%,112%,154%,–,–,88.6%
"CCCS(=O)(=O)Nc1ccc(F)c(C(=O)c2c[nH]c3ncc(Cl)cc23)c1F + C[As](C)SC[C@H](NC(=O)CC[C@H](N)C(=O)O)C(=O)NCC(=O)O [Darinaparsin] (first compound 0.08 µM, partner dose 0.4 µM)",94.1%,88.5%,116%,133%,52.2%,100%,73%,–,–,315%
"CC1(C)CCC(c2ccc(Cl)cc2)=C(CN2CCN(c3ccc(C(=O)NS(=O)(=O)c4ccc(N[C@H](CCN5CCOCC5)CSc5ccccc5)c(S(=O)(=O)C(F)(F)F)c4)cc3)CC2)C1 + N.N.[Cl][Pt][Cl] [cisplatin] (first compound 0.4 µM, partner dose 1.6 µM)",189%,502%,300%,37.1%,193%,141%,121%,–,–,106%
"N#CC[C@H](C1CCCC1)n1cc(-c2ncnc3[nH]ccc23)cn1 [ruxolitinib] + N.N.[Cl][Pt][Cl] [cisplatin] (first compound 1 µM, partner dose 1.6 µM)",137%,143%,187%,151%,76.3%,89.9%,66.1%,–,–,40.9%
"N.N.[Cl][Pt][Cl] [cisplatin] + O=C(O)c1ccc2c(c1)nc(Nc1cccc(Cl)c1)c1ccncc12 [CX4945] (first compound 1.6 µM, partner dose 0.4 µM)",213%,124%,127%,377%,86.1%,62.4%,51.5%,–,–,43.5%
"Cn1cc(C2=C(c3cn(C4CCN(Cc5ccccn5)CC4)c4ccccc34)C(=O)NC2=O)c2ccccc21 [Enzastaurin] + Cc1nc(Nc2ncc(C(=O)Nc3c(C)cccc3Cl)s2)cc(N2CCN(CCO)CC2)n1 [dasatanib] (first compound 0.8 µM, partner dose 0.004 µM)",83.1%,59%,175%,182%,90.1%,248%,41.5%,–,–,90.1%
"C[C@@H](N)c1ccc(C(=O)Nc2ccnc3[nH]ccc23)cc1 + C[As](C)SC[C@H](NC(=O)CC[C@H](N)C(=O)O)C(=O)NCC(=O)O [Darinaparsin] (first compound 0.4 µM, partner dose 0.4 µM)",152%,299%,92.6%,216%,110%,125%,192%,–,–,296%
"N.N.[Cl][Pt][Cl] [cisplatin] + Cn1c(Nc2ccc(C(F)(F)F)cc2)nc2cc(Oc3ccnc(-c4ncc(C(F)(F)F)[nH]4)c3)ccc21 [CHIR265] (first compound 1.6 µM, partner dose 0.08 µM)",96.2%,22.4%,71.4%,127%,76%,18.6%,56.2%,–,–,96.7%
"CS(=O)(=O)CCNCc1ccc(-c2ccc3ncnc(Nc4ccc(OCc5cccc(F)c5)c(Cl)c4)c3c2)o1 [lapatinib] + C[As](C)SC[C@H](NC(=O)CC[C@H](N)C(=O)O)C(=O)NCC(=O)O [Darinaparsin] (first compound 0.8 µM, partner dose 0.4 µM)",99.4%,117%,37.7%,136%,101%,64.3%,172%,–,–,179%
